Test results as given in PubChem BioAssay AID504444 (National Center for Advancing Translational Sciences (NCATS), 2011).
Values joined by “and” are separate entries in the source; they are usually repeats but may differ in a detail not shown here. Equal values may be shown once. Screen size: about 360,000 compounds; about 7,500 (2.1%) were called active. Inconclusive means that the source gave no clear call. Such entries were picked first, then a sample of the others. Calls follow the shape of the dose curve; as a rule, active = well fitted inhibition curve with a large enough effect; inconclusive = small, poorly fitted or top-dose-only effect, or effect the other way; inactive = flat fitted curve, though single readings scatter. A potency beside an inconclusive call is a rough fit, not a confirmed value.
% is scaled to controls: 0 for no effect and ±100 for the full control effect; potency is read from the fitted curve at half-maximal effect.

Assay: Nrf2 qHTS screen for inhibitors; also: nearly all actives have a fitted effect of over 60% in size
Conditions: A549 ARE-Fluc reporter, luciferase luminescence, 18-24 h; activity change, negative = inhibition: at 46 µM (top of the series)
Method in brief: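 A549 ARE_Fluc cells (5000/well, 5% FBS OPTI-MEM) pre-incubated 2 h, then treated with compounds 18-24 h at 37C/5% CO2 in concentration-response. CellTiter-Fluor viability read first; BugLite luciferase luminescence after 15 min at room temperature gives Nrf2 activity.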
With `Cc1ccc(Sc2ccc(CO)cc2[N+](=O)[O-])cc1` the Potency was inconclusive: 8.2 µM [falling, partial curve, poor fit]. With `COc1cc(OC)cc(C(=O)NCCCCCCNC(=O)c2cc(OC)cc(OC)c2)c1` the Potency was “inactive”. For `CCn1ccnc1CN1CCN(CCC(C)C)C(CCO)C1` (stereo not given), the Potency was “inactive”. With `Cc1ccccc1Nc1cc(C(=O)NC2CCC(C)CC2)c2ccccc2n1` (stereo not given) the Potency was inconclusive: 11.6 µM [activator, partial curve, poor fit]. With `COC(C(=O)Nc1ccc(S(=O)(=O)Nc2cccc3ccccc23)cc1)c1ccccc1` (stereo not given) the Potency was active: 23.1 µM. For `Cc1ccc(C(=O)NC2CCN(C#N)CC2)cc1`, the Potency was “inactive”. For `Cc1occc1-c1nnc(SCC(=O)Nc2ccccn2)o1`, the Potency was inconclusive: 10.3 µM [activator, partial curve]. With `Cc1ccc(-c2cc(C(=O)NN3CCOCC3)c3cc(Br)ccc3n2)o1` the Potency was inconclusive: 23.1 µM [falling, single point]. With `CC(C)N(Cc1ccccc1)S(=O)(=O)c1ccc2c(c1)NC(=O)CO2` the Potency was “inactive”. For `Cc1ccc2nc(N(CCCN(C)C)C(=O)c3ccc(S(=O)(=O)N4CCOCC4)cc3)sc2c1`, the Potency was inconclusive: 6.51 µM [falling, partial curve, poor fit]. With `COc1ccc(CNc2oc(COc3ccccc3)nc2C#N)cc1` the Potency was inconclusive: 0.82 µM [activator, full curve, poor fit]. For `CCOc1ccccc1CNC(=O)CCCn1nc(C)c2sc3ccccc3c2c1=O`, the Potency was inconclusive: 5.17 µM [falling, single point]. For `CCN(C(=O)COC(=O)CNS(=O)(=O)c1ccccc1)c1ccccc1`, the Potency was inconclusive: 10.3 µM [activator, partial curve, poor fit]. For `COc1ccc(S(=O)(=O)N2CCc3ccccc32)cc1OC`, the Potency was inconclusive: 20.6 µM [falling, single point]. For `CN(CCC#N)C(=O)COC(=O)c1c2c(nc3ccccc13)/C(=C\c1ccco1)CC2`, the Potency was inconclusive: 20.6 µM [activator, partial curve]. In the case of `COc1cc(NC(=O)Cn2nc(C(F)(F)F)c3c2CCCC3)cc(OC)c1OC`, the Potency is reported as inconclusive: 23.1 µM [falling, single point] and inconclusive: 29.1 µM [falling, single point]. In the case of `CC(=O)c1c(C)[nH]c(C(=O)CSc2ncnc3sc(-c4ccccc4)cc23)c1C`, the Potency is reported as active: 5.17 µM. With `O=C(NCC(O)CO)c1csc(Nc2cccc3ccccc23)n1` (stereo not given) the Potency was inconclusive: 20.6 µM [activator, single point]. With `CCOC(=O)/C=C1\CN(Cc2cc(OC)c(OC)c(OC)c2)S(=O)(=O)c2ccccc21` the Potency was inconclusive: 18.4 µM [falling, single point]. In the case of `Cc1cccc(OCC(=O)Nc2c(C(=O)N3CCN(c4ccccc4)CC3)oc3ccccc23)c1`, the Potency is reported as inconclusive: 20.6 µM [falling, single point]. With `O=C(c1cc(S(=O)(=O)N2CCOCC2)ccc1Cl)N1CCC(Cc2ccccc2)CC1` the Potency was inconclusive: 29.1 µM [falling, single point]. With `CC(=O)Nc1nc2n(n1)C(c1ccc(Cl)cc1)C=C(C)N2` (stereo not given) the Potency was “inactive”. In the case of `CC(=O)O[C@H]1[C@H](C)OC=C[C@@H]1OC(C)=O`, the Potency is reported as inconclusive: 23.1 µM [activator, partial curve, poor fit]. In the case of `O=C(O)CC(SCC(=O)Nc1ccc(Cl)c(S(=O)(=O)N2CCOCC2)c1)C(=O)O` (stereo not given), the Potency is reported as “inactive”. In the case of `Oc1ccccc1/C=N/Nc1ncc(Br)cn1`, the Potency is reported as inconclusive: 16.4 µM [falling, partial curve, poor fit]. With `COc1ccc(CNC(=O)C2COc3ccccc3O2)c(OC)c1` (stereo not given) the Potency was inconclusive: 13 µM [activator, partial curve, poor fit]. With `Cc1ccc(SCCC(=O)Nc2cccc(N(C)S(C)(=O)=O)c2)cc1` the Potency was inconclusive: 29.1 µM [falling, partial curve, poor fit]. In the case of `Cc1cc(Nc2ccccc2Cl)c2ccccc2n1`, the Potency is reported as inconclusive: 18.4 µM [falling, single point]. With `Cn1c(SCC(=O)N2CCOCC2)nnc1-c1ccco1` the Potency was inconclusive: 23.1 µM [activator, single point]. For `COc1ccc(/C=C2\SC(N3CCc4ccccc4C3)=NC2=O)cc1OC`, the Potency was “inactive”. In the case of `COc1cccc(C(=O)Nc2nc(-c3ccccc3)c(-c3ccccc3)o2)c1`, the Potency is reported as inconclusive: 29.1 µM [falling, single point]. In the case of `CCN1CCc2c(sc(NC(=O)Cc3ccccc3)c2C(N)=O)C1`, the Potency is reported as “inactive”. For `O=C1CCC(=O)N1c1ccc(CSc2nc3ccccc3[nH]2)cc1`, the Potency was inconclusive: 0.58 µM [activator, full curve, poor fit]. With `Cc1ccnc(NC(=O)c2ccc(S(=O)(=O)N3CCCCC3)cc2)c1` the Potency was inconclusive: 29.1 µM [falling, partial curve, poor fit]. With `CCc1nc2ccccc2n1CCCCOc1ccc(Cl)cc1` the Potency was inconclusive: 29.1 µM [falling, single point]. For `O=C(c1cc(S(=O)(=O)N2CCOCC2)ccc1F)N1CCc2ccccc21`, the Potency was inconclusive: 20.6 µM [falling, single point]. In the case of `COc1ccc(-c2nnc(SCC(=O)Nc3cc(C)on3)n2N)cc1OC`, the Potency is reported as inconclusive: 4.11 µM [falling, full curve, poor fit]. For `COc1cccc(C(=O)C(C#N)=C(SC)SC)c1`, the Potency was inconclusive: 7.31 µM [falling, partial curve, poor fit]. For `CC(=O)Nc1ccc2c(c1)nc(C)n2Cc1ccccc1`, the Potency was inconclusive: 6.51 µM [activator, partial curve, poor fit]. With `O=C(NCc1nc2ccccc2[nH]1)c1ccc(Cl)c(S(=O)(=O)N2CCCC2)c1` the Potency was inconclusive: 6.51 µM [activator, single point]. With `COC(=O)N/N=C/c1ccc(Oc2ccccc2)cc1` the Potency was inconclusive: 16.4 µM [activator, partial curve, poor fit]. In the case of `COc1cc(-c2nc3n(n2)C(c2ccc(F)cc2)C2=C(CCCC2=O)N3)cc(OC)c1OC` (stereo not given), the Potency is reported as inconclusive: 8.2 µM [falling, partial curve, poor fit]. In the case of `CC(=O)c1cc2c(cc1NC(=O)C1CN(C(C)=O)c3ccccc3O1)OCO2` (stereo not given), the Potency is reported as inconclusive: 5.8 µM [activator, partial curve, poor fit]. With `CC(C)(C)OC(=O)NCCCCCC(=O)N/N=C/c1coc2ccccc2c1=O` the Potency was inconclusive: 4.11 µM [activator, full curve, poor fit]. With `COc1cccc(-c2nnc(NC(=O)c3ccc(S(=O)(=O)N4CC(C)OC(C)C4)cc3)o2)c1` (stereo not given) the Potency was active: 9.2 µM. With `Cc1cc(O)c(C(C)C)cc1N=Cc1ccccc1[N+](=O)[O-]` the Potency was “inactive”. With `CCCC(=O)Nc1ccc(C(=O)NNC(=S)NC(=O)c2ccc(Br)o2)cc1` the Potency was inconclusive: 29.1 µM [falling, partial curve, poor fit]. With `COc1ccc(C(=O)Nc2cc3cc(Cl)ccc3oc2=O)cc1OC` the Potency was “inactive”. With `CCNC(=S)Nc1ccc(N2CCCCC2)cc1` the Potency was inconclusive: 5.8 µM [activator, full curve]. With `CCC1CN(C(=O)N2CCC(C(=O)NCCCc3ccccc3)CC2)c2ccccc2O1` (stereo not given) the Potency was inconclusive: 23.1 µM [falling, single point]. With `Cc1ccc(N2C(=O)c3n[nH]c(C)c3C2c2ccco2)cc1` (stereo not given) the Potency was inconclusive: 16.4 µM [activator, partial curve, poor fit]. In the case of `Cc1ccc(NC(=O)CSc2nccn2Cc2ccco2)cc1`, the Potency is reported as inconclusive: 9.2 µM [activator, partial curve]. In the case of `COc1ccc(NC(=O)c2cc3ccc(O)cc3o/c2=N\O)cc1`, the Potency is reported as active: 2.06 µM. For `Cc1cccc(-c2noc(CCC(=O)Nc3ccccc3)n2)c1`, the Potency was inconclusive: 29.1 µM [falling, single point]. In the case of `O=C(Nc1ccc2c(c1)OCCO2)C1CCCC1`, the Potency is reported as inconclusive: 5.8 µM [activator, partial curve, poor fit]. For `Cc1sc2nc(-c3ccccc3)oc(=O)c2c1C`, the Potency was inconclusive: 0.206 µM [activator, single point]. In the case of `CCN1/C(=C/c2ccc3cc(C)ccc3[n+]2C)Sc2ccc3sccc3c21`, the Potency is reported as active: 18.4 µM. For `O=C1c2ccccc2CCC12N=NCC2c1ccc(Cl)cc1` (stereo not given), the Potency was inconclusive: 32.6 µM [falling, single point]. With `COc1cccc(C(=O)Nc2cccc(-c3nnc(-c4ccccc4)o3)c2)c1` the Potency was inconclusive: 20.6 µM [falling, single point]. With `Cn1ccnc1SCC(=O)c1ccc(Cl)cc1` the Potency was inconclusive: 20.6 µM [activator, partial curve]. With `O=C(Nc1ccc(Cl)c(S(=O)(=O)Nc2ccccc2Cl)c1)c1cccs1` the Potency was inconclusive: 20.6 µM [falling, single point]. For `N#C/C(=C/c1ccc(O)cc1)C(=O)NCc1ccc(Cl)cc1`, the Potency was inconclusive: 6.51 µM [activator, single point]. For `CCN1CCN(c2cc(C)c3cc(NC(=O)c4cc(Br)ccc4Cl)ccc3n2)CC1`, the activity change, negative = inhibition was inactive: 9.52% [at 9.27 µM]. With `O=C(COc1ccc(-n2ccnc2)cc1)Nc1cccc(F)c1` the Potency was inconclusive: 20.6 µM [falling, partial curve, poor fit]. For `CCOC(=O)c1c(NC(=O)C2CCCN(S(=O)(=O)c3ccccc3)C2)sc2c1CCCC2` (stereo not given), the Potency was inconclusive: 16.4 µM [falling, partial curve, poor fit].
